Results are given in words; binding and its absence hold for the method and conditions named. Some binding calls cover weakened binding; strength is not graded here.
Biological target: maize leaf ferredoxin I (maize) (UniProt P27787)
Experiment: Fd-affinity chromatography; maize Fd I immobilised on resin (1 mL); stroma fraction of spinach chloroplasts loaded in 50 mM Tris/HCl pH 7.5, developed with 0-300 mM NaCl; fractions blotted with anti-L-FNR antibody; control and with 1 mM NADP+ or NAD+; only the target purified

Chains of the proteins cited; added tags and fusions are not shown. Residues count along the entry.
UniProt P27787, residues 53-150: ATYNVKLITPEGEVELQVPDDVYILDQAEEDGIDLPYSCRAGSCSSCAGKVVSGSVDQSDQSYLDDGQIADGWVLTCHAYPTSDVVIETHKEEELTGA

binding: binds
B1: ferredoxin-NADP+ reductase in the stroma fraction of spinach chloroplasts (enzyme, UniProt P00455 56-369)
chain: QIASDVEAPPPAPAKVEKHSKKMEEGITVNKFKPKTPYVGRCLLNTKITGDDAPGETWHMVFSHEGEIPYREGQSVGVIPDGEDKNGKPHKLRLYSIASSALGDFGDAKSVSLCVKRLIYTNDAGETIKGVCSNFLCDLKPGAEVKLTGPVGKEMLMPKDPNATIIMLGTGTGIAPFRSFLWKMFFEKHDDYKFNGLAWLFLGVPTSSSLLYKEEFEKMKEKAPDNFRLDFAVSREQTNEKGEKMYIQTRMAQYAVELWEMLKKDNTYFYMCGLKGMEKGIDDIMVSLAAAEGIDWIEYKRQLKKAEQWNVEVY

— paper PMC6886308, “NADP(H) allosterically regulates the interaction between ferredoxin and ferredoxin‐NADP^+ reductase” (FEBS Open Bio, 2019)
